Assay results from patent US10426813B2, “Method to enhance endurance” (KYOWA HAKKO BIO CO., LTD., priority 2009, dated 2019).
Peptide text beside a SMILES is read from it.

Legend:
[1] = Cardiovascular changes during exercise protocol (heart rate, blood pressure, RER); assay type: in vivo, human; conditions: for Resting Heart Rate: mean ± SD
Description: Subjects reported to the Human Performance Laboratory (HPL) on six separate occasions. During the initial session, subjects performed a graded maximal aerobic capacity test (VO2 max) on an electromagnetically braked cycle ergometer (Ergo 800, SensorMedics, Inc., Yorba Linda, Calif.). The VO2 max test was administered to establish workloads for subsequent endurance tests. VO2, RER, and VE were measured using the MedGraphics ULTIMA metabolic system (MedGraphics Corporation, St. Paul, Minn.). Gas analyzers were calibrated using gas provided by MedGraphics Corporation: 1) calibration gas: 5% CO2, 12% O2, balance N2; and 2) reference gas: 21% O2, balance N2. Gas calibration was conducted before each trial. Heart rate (HR) was measured using a wireless HR monitor (Pacer, Polar CIC, Inc., Port Washington, N.Y.). On four of the five subsequent visits to the HPL, subjects dehydrated to 2.5% of their baseline body mass. On the occasion that a dehydration protocol was not employed, subjects reported to the HPL in a euhydrated state to provide a baseline blood draw and perform the exercise protocol. This trial (T1) provided baseline performance data for how subjects performed in optimal conditions without hydration stress. All performance comparisons were made to this trial. In one trial (T2) subjects achieved their goal weight (−2.5% of baseline body weight) and rested in a recumbent position for 45 minutes before commencing the exercise session. In the subsequent three trials subjects reached their goal weight (−2.5% of baseline body mass) and then rehydrated to −1.5% of their baseline body mass by drinking either water (T3) or two different doses (T4 and T5) of the alanyl-glutamine (ALA-GLU) supplement (0.05 g·kg^−1 and 0.2 g·kg^−1, respectively). During the hydration trials (T3-T5), the exercise protocol began 45 minutes following reaching their goal weight. During this time frame, subjects were rehydrated. The order of the trials was randomly determined. Subjects consumed the supplement or placebo (water) following the dehydration protocol as part of their rehydration to −1.5% of their baseline body mass. The L-alanyl-L-glutamine supplement (0.2 g·kg^−1 or 0.05 g·kg^−1) (Kyowa Hakko USA, New York, N.Y.) was mixed with water and was indistinguishable in appearance and taste from the placebo. After dehydration and rehydration (except during trial T2), subjects began the exercise protocol. Subjects exercised at a workload that elicited 75% of their VO2 max on a cycle ergometer. Subjects were encouraged to give their best effort during each trial, and were verbally encouraged throughout each exercise trial. Oxygen consumption, minute ventilation, respiratory exchange ratio, and heart rate were measured continuously. Heart rate and blood pressure were recorded before and at the conclusion of exercise. Time to exhaustion was determined as the time that the subject could no longer maintain the workload and/or reach volitional exhaustion.

[2] = Plasma lactate, glucose, osmolality and electrolyte response to exercise; assay type: in vivo, human
Text: On four of the five subsequent visits to the HPL, subjects dehydrated to 2.5% of their baseline body mass. On the occasion that a dehydration protocol was not employed, subjects reported to the HPL in a euhydrated state to provide a baseline blood draw and perform the exercise protocol. This trial (T1) provided baseline performance data for how subjects performed in optimal conditions without hydration stress. All performance comparisons were made to this trial. In one trial (T2) subjects achieved their goal weight (−2.5% of baseline body weight) and rested in a recumbent position for 45 minutes before commencing the exercise session. In the subsequent three trials subjects reached their goal weight (−2.5% of baseline body mass) and then rehydrated to −1.5% of their baseline body mass by drinking either water (T3) or two different doses (T4 and T5) of the alanyl-glutamine (ALA-GLU) supplement (0.05 g·kg^−1 and 0.2 g·kg^−1, respectively). During the hydration trials (T3-T5), the exercise protocol began 45 minutes following reaching their goal weight. During this time frame, subjects were rehydrated. The order of the trials was randomly determined.
Subjects consumed the supplement or placebo (water) following the dehydration protocol as part of their rehydration to −1.5% of their baseline body mass. The L-alanyl-L-glutamine supplement (0.2 g·kg^−1 or 0.05 g·kg^−1) (Kyowa Hakko USA, New York, N.Y.) was mixed with water and was indistinguishable in appearance and taste from the placebo.
A baseline (BL) blood draw occurred during T1. No other blood was drawn during that trial. The BL blood sample was drawn following a 15-min equilibration period prior to exercise. During trials T2-T5, blood draws occurred once goal body mass was achieved (DHY), immediately prior to the exercise stress (RHY), and immediately following the exercise protocol (IP). Subjects returned to the laboratory 24 hours post exercise for an additional blood draw (24P). All trial blood samples (DHY, RHY and IP) were obtained using a 20-gauge Teflon cannula placed in a superficial forearm vein using a 3-way stopcock with a male luer lock adapter. The cannula was maintained in the patient using an isotonic saline solution (with 10% heparin). IP blood samples were taken within 15 seconds of exercise cessation. All BL and 24P blood samples were drawn with a plastic syringe while the subject was in a seated position. These blood samples were obtained from an antecubital arm vein using a 20-gauge disposable needle equipped with a Vacutainer® tube holder (Becton Dickinson, Franklin Lakes, N.J.) with the subject in a seated position. Each subjects' blood samples were obtained at the same time of day during each session. Blood samples were collected into two Vacutainer® tubes, one containing SST® Gel and Clot Activator and the second containing EDTA. A small aliquot of whole blood was removed from the second tube and used for microcapillary determination of hematocrit. The remaining blood in that tube was used for hemoglobin and several of the hormonal and biochemical analyses. Hemoglobin measures were performed without freezing, but the remaining plasma was placed into separate 1.8-ml microcentrifuge tubes and frozen at −80° C. for later analysis. The blood in the first tube was allowed to clot at room temperature and subsequently centrifuged at 1500×g for 15 minutes. The resulting serum was placed into separate 1.8-ml microcentrifuge tubes and frozen at −80° C. for later analysis.
Hemoglobin was analyzed in triplicate from whole blood using the cyanmethemoglobin method (Sigma Diagnostics, St. Louis, Mo.). Hematocrit was analyzed in triplicate from whole blood via microcentrifugation (IEC micro-MB centrifuge, Needham, Mass.) and microcapillary technique. Plasma volume shifts following the workout were calculated using the formula of Dill & Costill (1974). […]

[3] = T4, 0.05 g·kg^−1, immediate post exercise
[4] = T5, 0.2 g·kg^−1, immediate post exercise
[5] = T4, 0.05 g·kg^−1, DHY (before supplement)
[6] = T5, 0.2 g·kg^−1, DHY (before supplement)

Compound: C[C@H](N)C(=O)N[C@@H](CCC(N)=O)C(=O)O [alanyl-glutamine, L-alanyl-L-glutamine] (H-Ala-Gln-OH)
- RER ([1]; T4, 0.05 g·kg^−1): 1.08 ± 0.10
- Resting DBP ([1]; T4, 0.05 g·kg^−1): 79.0 ± 2.7 mmHg
- Resting SBP ([1]; T4, 0.05 g·kg^−1): 114.8 ± 5.2 mmHg
- IP DBP [1, 3]: 88.3 ± 11.6 mmHg
- IP Heart Rate [1, 3]: 183.0 ± 12.5 beats·min^−1
- IP SBP [1, 3]: 150.3 ± 23.0 mmHg
- RER ([1]; T5, 0.2 g·kg^−1): 1.07 ± 0.08
- Resting DBP ([1]; T5, 0.2 g·kg^−1): 77.2 ± 5.9 mmHg
- Resting SBP ([1]; T5, 0.2 g·kg^−1): 113.0 ± 7.7 mmHg
- IP DBP [1, 4]: 84.8 ± 11.9 mmHg
- IP Heart Rate [1, 4]: 184.2 ± 13.0 beats·min^−1
- IP SBP [1, 4]: 152.5 ± 19.6 mmHg
- Resting Heart Rate ([1]; trial T4, 0.05 g·kg^−1 oral in rehydration water): 76.7 ± 17.6 beats · min^−1
- Resting Heart Rate ([1]; trial T5, 0.2 g·kg^−1 oral in rehydration water): 76.9 ± 15.8 beats · min^−1
- Plasma Lactate ([2]; T4, 0.05 g·kg^−1, DHY (after dehydration, before supplement)): 2.0 ± 0.6 mmol/L
- Plasma Glucose [2, 5]: 6.4 ± 1.4 mmol/L
- Plasma Osmolality [2, 5]: 296 ± 4 mOsm
- Plasma Potassium [2, 5]: 4.1 ± 0.3 mmol/L
- Plasma Sodium [2, 5]: 141.1 ± 2.5 mmol/L
- Plasma Glucose ([2]; T4, 0.05 g·kg^−1, IP): 8.4 ± 1.9 mmol/L
- Plasma Osmolality ([2]; T4, 0.05 g·kg^−1, IP): 302 ± 5 mOsm
- Plasma Potassium ([2]; T4, 0.05 g·kg^−1, IP): 4.4 ± 0.4 mmol/L
- Plasma Sodium ([2]; T4, 0.05 g·kg^−1, IP): 140.7 ± 2.0 mmol/L
- Plasma Lactate ([2]; T4, 0.05 g·kg^−1, IP (immediate post-exercise)): 9.9 ± 4.2 mmol/L
- Plasma Glucose ([2]; T4, 0.05 g·kg^−1, RHY): 6.4 ± 0.9 mmol/L
- Plasma Osmolality ([2]; T4, 0.05 g·kg^−1, RHY): 292 ± 4 mOsm
- Plasma Potassium ([2]; T4, 0.05 g·kg^−1, RHY): 4.3 ± 0.6 mmol/L
- Plasma Sodium ([2]; T4, 0.05 g·kg^−1, RHY): 138.7 ± 1.9 mmol/L
- Plasma Lactate ([2]; T4, 0.05 g·kg^−1, RHY (after rehydration, before exercise)): 2.0 ± 0.5 mmol/L
- Plasma Lactate ([2]; T5, 0.2 g·kg^−1, DHY (after dehydration, before supplement)): 1.7 ± 0.6 mmol/L
- Plasma Glucose [2, 6]: 5.7 ± 1.2 mmol/L
- Plasma Osmolality [2, 6]: 298 ± 6 mOsm
- Plasma Potassium [2, 6]: 4.0 ± 0.3 mmol/L
- Plasma Sodium [2, 6]: 141.2 ± 1.4 mmol/L
- Plasma Glucose ([2]; T5, 0.2 g·kg^−1, IP): 7.4 ± 2.6 mmol/L
- Plasma Osmolality ([2]; T5, 0.2 g·kg^−1, IP): 303 ± 7 mOsm
- Plasma Potassium ([2]; T5, 0.2 g·kg^−1, IP): 4.5 ± 0.6 mmol/L
- Plasma Sodium ([2]; T5, 0.2 g·kg^−1, IP): 140.2 ± 1.3 mmol/L
- Plasma Lactate ([2]; T5, 0.2 g·kg^−1, IP (immediate post-exercise)): 11.7 ± 2.2 mmol/L
- Plasma Glucose ([2]; T5, 0.2 g·kg^−1, RHY): 5.6 ± 1.2 mmol/L
- Plasma Osmolality ([2]; T5, 0.2 g·kg^−1, RHY): 294 ± 4 mOsm
- Plasma Potassium ([2]; T5, 0.2 g·kg^−1, RHY): 4.1 ± 0.4 mmol/L
- Plasma Sodium ([2]; T5, 0.2 g·kg^−1, RHY): 138.7 ± 1.6 mmol/L
- Plasma Lactate ([2]; T5, 0.2 g·kg^−1, RHY (after rehydration, before exercise)): 2.1 ± 0.4 mmol/L
